This passage reports binding results from publication PMC7585203.

These are yes or no findings as the source states them, for the method shown. A result given as binding can be weak or reduced; the word gives no strength.

This assay concerns the target GST-tagged UHRF1 Tudor domain printed on the protein reader domain microarray (not stated (printed UniProt entry is human)). The assay is described as follows: peptide or protein array; protein reader domain microarray: 308 GST-tagged domains printed in duplicate on nitrocellulose-coated glass slides; C-terminally biotinylated peptides labelled with Cy3- (methods, legend) or Cy5- (results) streptavidin, 100 µg peptide in 1.8 mL PBST with 3% milk and 3% …; saturating peptide concentrations; both purified.

B1: biotinylated LIG1(118–130)K126me0 peptide (peptide)
peptide: IPKRRTARKQLPK
modifications: C-terminal biotin (complexed with Cy3/Cy5-streptavidin)
Regarding B1, the binding result is “binds”.
